Measured values: PMC6308570

Test system: thrombin
Assay: binding assay
Details: Affinity buffer 50 mM Tris-HCl pH 7.4, 250 mM NaCl, 5 mM MgCl2; 2 h incubation; surface blocked with 1% BSA; temperature not stated; commercial protein; single-stranded DNA

Sequence “AGTCCGTGGTAGGGCAGGTTGGGGTGACT [29-mer thrombin aptamer]” has a Kd of 0.5 nM.

For at least one entry, the source does not settle the construct or the ends of the probe.
